Data published in patent US12435377B2, “Cancers with loss of chromosome 16Q and/or low expression of metallothionein proteins” (THE BROAD INSTITUTE, INC., priority 2018, dated 2025).
At least one structure is not confirmed: it was looked up by name or label, or the drawing left a doubt.

Columns and labels:
[1] = system: PRISM cancer cell lines stratified by chromosome 16q status; assay: PRISM multiplexed cellular viability assay (drug repurposing library); format: cell-based, human; conditions: PRISM screen, compared with other compounds of the drug repurposing library
Procedure: Parental cell lines were obtained from the Cancer Cell Line Encyclopedia (CCLE) project (1). PRISM cell line barcoding, pooling, and screening was performed as previously described with several improvements to the original method (2). First, the lentiviral vector was modified to encode the unique barcode identifier at the end of the puromycin resistance gene. This enables barcodes to be detected using a variant of the mRNA capture and Luminex detection method developed for the L1000 gene expression assay (3). Second, a set of ten inert barcodes were spiked-in to each well of each plate after cell lysis to control for variation in PCR amplification as detailed below.
MFI values were log-transformed (log MFI) and used to perform basic quality control. To detect probable screening artifacts, log MFI values were centered to the median log MFI for each cell line on each plate in order to put the measurements from each cell line on the same scale. […]
Cell viability was calculated as the ratio of nMFI to the median of the nMFI from the DMSO-treated negative controls for each cell line on each plate. […] The final viability values were calculated as the median of the batch-corrected cell viabilities from biological replicates for each cell line, compound and dose. […]
[formula] The Area Under the dose response Curve (AUC) was calculated using the normalized integral: […]

[2] = system: SF295 cells; assay: Viability of SF295 cells with or without CRISPR-Cas9 MTF1 knockout (FIG. 7); format: cell-based
Excerpt: XP003, XP023, psPAX, and pMD2.G vectors were acquired from the Broad Genetic Perturbation Platform (GPP). Oligos for sgRNAs designs were generated using Broad GPP sgRNA guide generator resource (broad institute.org/gpp/db/analysis-tools/sgrna-design) and the respective oligos were synthesized by Integrated DNA Technologies. In order to clone the sgRNAs into either the XPR003 guide only or XPRO23 all-in-one crispr lentiviral expression systems the protocol available on the Broad GPP website (broadinstitute.org/gpp/db/resources/protocols) was followed.
A mixture of 3E6 cells, virus, and media with 4 μg/mL polybrene (Millipore) at a total volume of 2 mL was plated per well of a 12 well plate. Cells were centrifuged at 2000 RPM for 2 hours at 30° C. After removal from incubator, 2 mL of fresh media was added to each well and cells were allowed to incubate at 37° C. overnight. The following day cells were selected for with puromycin for 3-10 days, or until the non-infected control cell were completely non-viable.
Biological replicates were averaged and normalized to vehicle control. Dose curves were generated using Graphpad Prism.

[3] = system: metastatic non-small cell lung cancer (NSCLC); conditions: newly diagnosed NSCLC patients, low-dose disulfiram added to cisplatin/navelbine; cited from earlier work

Question: With CCN(CC)C(=S)SSC(=S)N(CC)CC [disulfiram, Disulfiram] as the compound, how does the cell killing profile [1] read?
Answer: The cell killing profile was “shared cell killing profile specific for cancer cell lines having 16q loss”.

Question: And the “effect of MTF1 knockout on sensitivity of SF295 cells” value ([2]; MTF1 sg1 and MTF1 sg2 versus control guide GFP sg1)?
Answer: The value was “sensitized”.

Question: What about the “sensitivity of parental SF295 cell line” value ([2]; SF295 exhibits gain of chromosome 16q) of the same compound?
Answer: The value was “resistant”.

Question: And the survival [3]?
Answer: The survival was “survival benefit”.
